Laboratory results as given in PubChem BioAssay AID2685 (National Center for Advancing Translational Sciences (NCATS), 2010).
Some of the results follow. The main result of the screen is listed elsewhere. These columns were measured beside it and carry no call. The list favours compounds with an active or inconclusive main result. Potencies come from curve fits of mixed quality, noted in brackets.

Assay: qHTS Assay for Lipid Storage Modulators in Drosophila S3 Cells;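 for cell number change: cells counted by Cell Tracker Red CMTPX staining in the red channel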
Conditions: BODIPY lipid droplet fluorescence, 18-24 h; for cell number change: measured here: cell count max response, cells fed with added oleic acid
How it was run: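 Drosophila S3 cells got compounds at several concentrations plus oleic acid (400 uM solution). Laser-scanning cytometry with 488 nm excitation read lipid droplets at 500-530 nm and cells at 575-640 nm. Percent activity was relative to 20 uM Triacsin C.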

[1] = measured here: lipid fluorescence (Fed channel) AC50, cells fed with added oleic acid
[2] = measured here: cell number channel AC50, cells fed with added oleic acid

| SMILES | cell number change [%] | AC50 [1] | AC50 [2] |
| --- | --- | --- | --- |
| CC(C)(C)OC(=O)NCCCCCNC(=O)c1[nH]cnc1C(=O)Nc1nccs1 | -2.94 | 130 nM [falling, single point] |  |
| C=CCn1c(SCC(=O)NCc2ccco2)nc2sc3c(c2c1=O)CCCC3 | 6.23 |  | 116 nM [falling, full curve, poor fit] |
| Nc1nc(SCC(=O)NCCO)nc2sc3c(c12)CCCC3 | 14.1 |  |  |
| CN(c1ccccc1C(=O)Nc1ccc(S(=O)(=O)N2CCOCC2)cc1)S(C)(=O)=O | -9.93 | 65.1 nM [rising, full curve, poor fit] |  |
| CN(c1ccccc1)S(=O)(=O)c1ccc(NC(=O)COc2ccccc2)cc1 | -54 | 29100 nM [falling, single point] | 16400 nM [falling, single point] |
| CCOC(=O)C1(CC2CCCCO2)CCN(Cc2cc3ccccc3[nH]2)CC1 (centres undefined) | -11.6 | 3260 nM [falling, partial curve, poor fit] |  |
| CN(C)Cc1c(C(=O)N/N=C/c2cccc3ccccc23)nnn1-c1nonc1N | -5.37 |  |  |
| Cc1ccc(C(=O)CN2CCC(NC(=O)C3CCCCC3)CC2)cc1 | 31.6 | 18400 nM [rising, single point] | 1460 nM [rising, full curve, poor fit] |
| O=C(NCc1ccccc1Cl)C1CCCN1C(=O)NCc1ccccc1 (centres undefined) | -9.12 |  |  |
| Cc1ccc(C(=O)CC2(O)C(=O)N(C)c3ccccc32)s1 (centres undefined) | -22.9 |  | 3660 nM [rising, single point] |
| O=C(/C=C/c1cccc([N+](=O)[O-])c1)NCCSCc1cccc(Cl)c1 | 16.3 | 29100 nM [rising, single point] |  |
| COC(=O)c1ccccc1NC(=O)CN(Cc1ccccc1)S(C)(=O)=O | 5.62 |  |  |
| C[N+](C)(C)CCOc1ccc([N+](=O)[O-])cc1 | 10.6 |  |  |
| CC(C)CCNC(=O)c1ccccc1NC(=O)C1=CSCCO1 | -8.75 |  |  |
| COC(=O)/C=C1\S/C(=N/NC(=O)c2ccc(OC)cc2)NC1=O | 11 | 2310 nM [falling, partial curve, poor fit] |  |
| N#CCCN=C(NS(=O)(=O)c1ccccc1)c1ccccc1 | 11.2 | 1160 nM [rising, single point] |  |
| COC(=O)[C@H](Cc1ccccc1)NC(=O)NCc1ccccc1OC | 11.6 | 6510 nM [falling, single point] |  |
| CCOCCN1CCN(c2c(CC)c(C)nc3cc(-c4cc(OC)cc(OC)c4)nn23)CC1 | -14.9 | 9200 nM [falling, single point] |  |
| CN(C)CCCNC(=O)c1ccc(Cl)c(S(=O)(=O)N2CCCCCC2)c1 | -33.6 | 20600 nM [falling, single point] | 20600 nM [falling, single point] |
| CCC(C(=O)NCCC(C)C)n1ccc2cc(S(=O)(=O)N3CCCCC3)ccc21 (centres undefined) | -21.3 | 1640 nM [falling, partial curve] |  |
| Cc1ccc(NC(=S)NNc2ncc(C(F)(F)F)cc2Cl)c(C)c1 |  | 1640 nM [rising, partial curve] | 1460 nM [rising, partial curve] |

Reprinted at random: five records from the list, in no set order.

| SMILES | cell number change [%] | AC50 [1] | AC50 [2] |
| --- | --- | --- | --- |
| Cc1ccc(NC(=S)NNc2ncc(C(F)(F)F)cc2Cl)c(C)c1 |  | 1640 nM [rising, partial curve] | 1460 nM [rising, partial curve] |
| COC(=O)[C@H](Cc1ccccc1)NC(=O)NCc1ccccc1OC | 11.6 | 6510 nM [falling, single point] |  |
| O=C(NCc1ccccc1Cl)C1CCCN1C(=O)NCc1ccccc1 (centres undefined) | -9.12 |  |  |
| Nc1nc(SCC(=O)NCCO)nc2sc3c(c12)CCCC3 | 14.1 |  |  |
| Cc1ccc(C(=O)CN2CCC(NC(=O)C3CCCCC3)CC2)cc1 | 31.6 | 18400 nM [rising, single point] | 1460 nM [rising, full curve, poor fit] |

(cont.)

| SMILES | cell number change [%] | AC50 [1] | AC50 [2] |
| --- | --- | --- | --- |
| CC(=O)N1c2ccc(S(=O)(=O)N3CCC(C(=O)N4CC(C)CC(C)C4)CC3)cc2CC1C (centres undefined) | -5.77 | 411 nM [falling, single point] |  |
| COc1ccccc1NS(=O)(=O)c1cc(C(=O)NCC(c2ccc(F)cc2)N2CCOCC2)ccc1C (centres undefined) | 115 |  | 14600 nM [rising, partial curve] |
| O=C(N/N=C/c1cccnc1)c1ccc(NC(=O)C(c2ccccc2)c2ccccc2)cc1 | 5.06 | 2310 nM [falling, full curve, poor fit] |  |
| c1ccc(Nc2ccc(-n3ccnc3)nn2)cc1 | -95.2 |  | 20600 nM [falling, single point] |
| CN(CC(=O)NCC1CCCCC1)S(=O)(=O)c1ccc(Cl)cc1 | 4.27 | 18400 nM [rising, single point] |  |
| COc1cccc(OCCOc2ccccc2OC(C)C)c1 | -15.1 | 7310 nM [rising, partial curve, poor fit] |  |
| CCC(=O)N1CCc2cc(S(=O)(=O)Nc3ccccc3C)ccc21 | 11.1 | 6510 nM [rising, single point] |  |
| CC1(C)CNC(=O)c2sc(N3CCCCC3)nc2C1 | -18.8 |  |  |
| COc1cc(/C=N/NC(=O)CN2CCCCC2)ccc1OCc1ccc(Br)cc1 | 10.2 |  | 92 nM [falling, full curve, poor fit] |
| COc1ccccc1CNC(=O)Cn1cccc1 | 6.51 |  |  |
| COC(=O)COc1ccc(C(c2c(C)[nH][nH]c2=O)c2c(C)[nH][nH]c2=O)cc1 | -2.47 | 29100 nM [rising, single point] |  |
| Cc1ccc(-c2nn3c(C)nnc3c3ccccc23)cc1S(=O)(=O)NC(C)c1ccccc1 (centres undefined) | -20 | 16400 nM [falling, single point] |  |
| CC1(C)Cc2cccc(Oc3cc(NN4CCCCC4)c([N+](=O)[O-])cc3[N+](=O)[O-])c2O1 | -0.324 | 20.6 nM [falling, full curve] |  |
| O=C(NCCS(=O)(=O)NCc1ccccc1Cl)c1ccccc1 | 34.4 | 6510 nM [falling, single point] | 29100 nM [rising, single point] |
| Cc1nccn1CCN(C)Cc1cn(Cc2ccccc2)nc1-c1ccc2c(c1)OCO2 |  |  | 4110 nM [falling, single point] |
| COc1ccc2nc(SCC(=O)Nc3ccc(S(=O)(=O)N4CCCC4)cc3)c(C#N)cc2c1 | -3.24 | 6510 nM [rising, single point] |  |
| Cc1cccc(CN2CCN(CC(=O)O)C2=O)c1 | 20.5 |  | 820 nM [rising, full curve, poor fit] |
| Cc1ccnc2nc(C(=O)NCc3cccs3)nn12 | 1.94 |  |  |
| Cc1nn(C(C)(C)C)c(OC(=O)C2CCCC2)c1S(=O)(=O)c1ccccc1 | -18.5 |  | 4.11 nM [falling, full curve, poor fit] |
| CC(C)c1ccc(NC(=O)CSc2nc3ccccc3nc2N2CCCC2)cc1 | -6.05 | 29100 nM [falling, single point] |  |
| Cc1ccc(CS(=O)Cc2ccc(C(=O)NCc3cccs3)o2)cc1 (centres undefined) |  |  | 4.61 nM [falling, full curve, poor fit] |

| SMILES | cell number change [%] | AC50 [1] | AC50 [2] |
| --- | --- | --- | --- |
| CCCCC(=O)Nc1nnc(SCC(=O)NC2CC2)s1 | 12.5 |  |  |
| CSc1nc2c(cc1C#N)CCC2 | 14.4 |  |  |
| CC(Sc1nnc2ccccn12)C(N)=O (centres undefined) |  | 580 nM [rising, partial curve, poor fit] | 580 nM [rising, single point] |
| O=C1CC(=O)N(c2ccccc2)N1c1ccccc1 |  | 32600 nM [falling, single point] |  |
| COc1ccc2[nH]c3c(c2c1)CCN1C(=O)N([C@@H](C)C(=O)NC2CCCC2)C(=O)[C@]31C | 20.4 |  |  |
| CCOc1ccc(S(=O)(=O)NCCC(=O)NCC2COc3ccccc3O2)cc1 (centres undefined) | 18.5 |  | 130 nM [rising, full curve, poor fit] |
| COC(=O)c1c(NC(=O)CN2CCN(S(=O)(=O)c3ccccc3[N+](=O)[O-])CC2)sc2c1CCC(C)C2 (centres undefined) | -33.3 | 517 nM [rising, full curve] | 820 nM [falling, full curve, poor fit] |
| CCCNc1c(NS(=O)(=O)c2c(F)c(F)c(F)c(F)c2F)c(=O)oc2ccccc12 | 4.29 |  |  |
| CC(=O)c1cccc(NC(=O)c2ccc3c(c2)C(=O)N(Cc2cccnc2)C3=O)c1 | -42.2 | 4610 nM [falling, single point] | 29100 nM [falling, single point] |
| CC(C(=O)NC1CCCCCC1)c1ccc([N+](=O)[O-])cc1 (centres undefined) | 2.19 |  |  |
| O=C(NCCc1ccccc1)C1CCCN(S(=O)(=O)c2cccnc2)C1 (centres undefined) | 14.5 | 116 nM [rising, full curve, poor fit] | 29.1 nM [rising, full curve, poor fit] |
| CCOC(=O)C1=C(COC(=O)/C=C/c2ccccc2Cl)NC(=O)NC1C (centres undefined) | 11.1 | 1460 nM [rising, full curve, poor fit] |  |
| CCN(CC)CCNC(=O)c1ccc(NC(=O)c2cc(-c3ccncc3)nc3ccccc23)cc1 | -46.5 | 20600 nM [falling, single point] | 2310 nM [falling, partial curve] |
| O=C(Nc1cccc(Cl)c1)Nc1nc(-c2ccccc2)cs1 | -54.9 | 20600 nM [falling, partial curve, poor fit] | 18400 nM [falling, partial curve, poor fit] |
| O=C(CCN1CCc2ccccc2C(c2ccccc2)C1)c1ccc2c(c1)OCCO2 (centres undefined) | -89.9 |  | 29100 nM [falling, single point] |
| Cc1ccc(S(=O)(=O)N2CCC(=O)N(CCOC(=O)Nc3ccccc3C)CC2)cc1 | -0.104 | 920 nM [rising, partial curve] |  |
| CC(=O)Nc1ccc(-c2nn[nH]n2)cc1 | 25.9 | 291 nM [rising, full curve, poor fit] |  |
| COc1ccc(CCNC(=O)Cn2nnc(-c3ccc(N4CCOCC4)cc3)n2)cc1OC | -80.2 | 259 nM [falling, full curve] | 291 nM [falling, full curve] |
| C=C1CSc2nc(=O)c3c(C)c(C)sc3n21 | 1.68 |  |  |
